Data from PubChem BioAssay AID504444 (National Center for Advancing Translational Sciences (NCATS), 2011).
Hit rate of the full screen: of about 360,000 compounds, about 7,500 (2.1%) were called active. Inconclusive means that the source gave no clear call. Such entries were picked first, then a sample of the others. Calls follow the shape of the dose curve; as a rule, active = well fitted inhibition curve with a large enough effect; inconclusive = small, poorly fitted or top-dose-only effect, or effect the other way; inactive = flat fitted curve, though single readings scatter. Potencies beside an inconclusive call are fits to weak or partial responses and may not hold up.

assay: Nrf2 qHTS screen for inhibitors; settings: A549 ARE-Fluc reporter, luciferase luminescence, 18-24 h; series mostly up to 46 µM; also: nearly all actives have a fitted effect of over 60% in size
Outline: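 Nrf2 function is reported as luminescence of an ARE-controlled luciferase in A549 cells. Compounds were tested at several concentrations, and a CellTiter-Fluor read on the same wells flagged cytotoxicity.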
Potency is read from the fitted curve at half-maximal effect.

| Compound | Potency |
| --- | --- |
| O=Cc1ccc(Sc2nnc(-c3ccccc3)o2)c([N+](=O)[O-])c1 | inactive |
| CCC(CO)NS(=O)(=O)c1cc(-c2nn(C)c(=O)c3ccccc23)ccc1C (centres undefined) | inconclusive: 23.1 µM [falling, single point] |
| CCc1ccc2nc(NC(=O)C3CSC4(C)CCC(=O)N34)sc2c1 (centres undefined) | inconclusive: 18.4 µM [activator, single point] |
| COc1ccc(OC)c(NC(=O)CN2C(=O)CSc3ccc(S(=O)(=O)N4CCCC4)cc32)c1 | inactive |
| Cc1c(C(=O)N2CCCCCC2)c(S(=O)(=O)NCc2ccc(Br)cc2)c(C)n1C | inconclusive: 32.6 µM [falling, single point] |
| COC(=O)C1=C(C)NC(C)=C(C(=O)OC)C1c1ccccc1[N+](=O)[O-] | inactive |
| COc1ccc(/C=N/NC(=O)COc2ccccc2-c2ccccc2)cc1 | inconclusive: 16.4 µM [falling, single point] |
| Cc1ccc(-c2nc3ccccn3c2Nc2ccccc2C)s1 | inconclusive: 23.1 µM [activator, partial curve] |
| CC1CN(C(=O)CCNC(=O)c2ccc(Br)cc2)CC(C)O1 (centres undefined) | inconclusive: 6.51 µM [falling, single point] |
| N=C1S/C(=C\c2ccc(-c3cccc(Cl)c3)o2)C(=O)N1c1nccs1 | active: 8.2 µM |
| Cc1ccccc1C(=O)NC1CCCCCCC1 | inconclusive: 7.31 µM [activator, partial curve] |
| CN(/N=C/c1cc(Cl)cc(Cl)c1O)C(=S)NC(C)(C)C | inconclusive: 18.4 µM [falling, partial curve, poor fit] |
| CCOC(=O)Nc1cccc(OCC(=O)Nc2ccc(OC)cc2OC)c1 | active: 14.6 µM |
| CCc1ccc(NC(=O)Cn2c3[n+](c4c(F)c(F)ccc42)CCCCC3)cc1 | inconclusive: 18.4 µM [activator, single point] |
| COc1ccc(CNC(=O)CN2C(=O)CSc3ccc(S(=O)(=O)N4CCOCC4)cc32)c(OC)c1 | inactive |
| CCOC(=O)c1ccc(NC(=O)CSc2nnc(C3CC3)n2CC)cc1 | inactive |
| COc1cc(OC)c(OC)cc1/C=C/c1cc(C(=O)O)c2ccccc2n1 | inactive |
| COc1ccc(CCN(C)C(=O)c2cc(S(=O)(=O)NCc3ccccc3)ccc2C)cc1OC | active: 16.4 µM |
| Cn1ncc(Br)c1C(=O)NCc1cccs1 | inconclusive: 29.1 µM [falling, single point] |
| CCOc1ccc(OCc2ccc(C(=O)NC(C)(C)C)o2)cc1 | inconclusive: 29.1 µM [falling, single point] |
| Nc1ccccc1SCc1csc(-c2ccc(Cl)cc2)n1 | inconclusive: 18.4 µM [activator, single point] |
| O=C(c1cc2ccccc2o1)N1CCN(S(=O)(=O)c2c(F)cccc2F)CC1 | inconclusive: 6.51 µM [falling, partial curve, poor fit] |

| Compound | Potency |
| --- | --- |
| Cn1nc(C(F)(F)F)c(/C=N/OC(=O)c2ccccc2Cl)c1SCc1ccccc1Cl | inconclusive: 29.1 µM [falling, single point] |
| CC(/C=N/NC(=O)c1cccnc1)=C\c1ccccc1 | inconclusive: 4.11 µM [activator, partial curve] |
| O=c1c(S(=O)(=O)c2ccccc2)cn(Cc2cccc(F)c2)c2cc(N3CCOCC3)c(F)cc12 | inconclusive: 29.1 µM [falling, single point] |
| COCC1CCCN(Cc2cn(Cc3ccccc3)nc2-c2cc3ccccc3o2)C1 (centres undefined) | inactive |
| CCc1ccc(S(=O)(=O)c2cn(C)c3cc(N4CCC(C)CC4)c(F)cc3c2=O)cc1 | inactive |
| Cc1cc(/C=C(\C#N)C(=O)Nc2ccccc2)c(C)n1-c1ccc(C(=O)O)cc1 | inconclusive: 8.2 µM [falling, partial curve] |
| CCN(CC)c1ccc(/C=N/NC(=O)c2ccco2)cc1 | inconclusive: 3.26 µM [activator, partial curve, poor fit] |
| NC(=O)C1CCN(C(=O)CCc2ccsc2)CC1 | inconclusive: 9.2 µM [activator, partial curve, poor fit] |
| CCOc1cccc2cc(C(=O)Oc3ccc(OC)cc3)c(=O)oc12 | inactive |
| Cc1ccccc1C(=O)N(Cc1nc(-c2ccc(Cl)cc2)no1)C(C)C | inconclusive: 29.1 µM [falling, single point] |
| C/C(=N\NC(=O)c1cc(C)nc2ccccc12)c1ccc([N+](=O)[O-])cc1 | inconclusive: 0.366 µM [falling, partial curve, poor fit] |
| Cc1cc2c(cc(C(=O)O)n2C)s1 | inconclusive: 29.1 µM [activator, single point] |
| CCOC(=O)c1cn[nH]c1NC(=S)Nc1ccc(OC)cc1 | inconclusive: 2.59 µM [activator, full curve] |
| CC(NC(=O)CN(c1ccc(Cl)cc1Cl)S(=O)(=O)c1ccccc1)c1ccccc1 (centres undefined) | inconclusive: 32.6 µM [falling, single point] |
| Cc1ccc(Cn2nnnc2CN2CCC(O)(c3ccccc3F)CC2)cc1 | inconclusive: 32.6 µM [falling, partial curve, poor fit] |
| COc1ccc(C(=O)c2ccc(Cl)cc2)c(OC)c1OC | inconclusive: 29.1 µM [activator, partial curve, poor fit] |
| Cc1ccc(N2CC(C(=O)N(C)CC(=O)Nc3ccc(Cl)c(C(F)(F)F)c3)CC2=O)cc1 (centres undefined) | inconclusive: 23.1 µM [falling, single point] |
| C/C(N)=C(/C#N)C(=O)COC(=O)c1cc2c(s1)CCCC2 | inconclusive: 29.1 µM [falling, single point] |
| Cc1cc(C)c(C)c(S(=O)(=O)N2CCN(C(=O)CNC(=O)c3ccco3)CC2)c1C | inconclusive: 0.058 µM [falling, full curve, poor fit] |
| CCCCN(C(=O)C1CC(=O)N(Cc2ccc(C)cc2)C1)c1c(N)n(CCCC)c(=O)[nH]c1=O (centres undefined) | inactive |
| S=C(NCCCNc1ccc(Br)cn1)NCCCc1cnc[nH]1 | inactive |
| COc1ccc(CCNC(C)=O)cc1 | inactive |

Structures above containing an NH in an aromatic ring:

| Compound | Potency |
| --- | --- |
| CCOC(=O)c1cn[nH]c1NC(=S)Nc1ccc(OC)cc1 | inconclusive: 2.59 µM [activator, full curve] |
| CCCCN(C(=O)C1CC(=O)N(Cc2ccc(C)cc2)C1)c1c(N)n(CCCC)c(=O)[nH]c1=O (centres undefined) | inactive |
| S=C(NCCCNc1ccc(Br)cn1)NCCCc1cnc[nH]1 | inactive |
